In paper PMC11383184:
These are yes or no findings as the source states them, for the method shown. Binding seen in cells or lysates may run through a third protein. Some results given as binding are weak or reduced against the parent protein; the word gives no strength.

By UniProt entry, the sequences of proteins in these tests, tags left out. Residues count along the entry.
UniProt P09103, residues 20-509: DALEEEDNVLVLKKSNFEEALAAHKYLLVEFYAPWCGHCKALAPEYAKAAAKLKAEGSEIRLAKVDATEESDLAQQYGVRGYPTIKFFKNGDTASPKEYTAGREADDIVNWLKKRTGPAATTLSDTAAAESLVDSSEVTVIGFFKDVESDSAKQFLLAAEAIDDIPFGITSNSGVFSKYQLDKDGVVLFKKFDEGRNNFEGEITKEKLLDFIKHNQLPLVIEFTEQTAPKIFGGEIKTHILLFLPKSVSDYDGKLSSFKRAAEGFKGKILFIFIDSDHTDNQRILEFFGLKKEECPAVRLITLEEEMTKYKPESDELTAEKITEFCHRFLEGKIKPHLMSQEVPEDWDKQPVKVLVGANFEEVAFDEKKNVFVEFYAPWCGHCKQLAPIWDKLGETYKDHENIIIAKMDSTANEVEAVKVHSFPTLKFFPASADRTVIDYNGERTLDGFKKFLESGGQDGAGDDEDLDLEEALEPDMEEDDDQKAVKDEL

B1: SHCBP1L (protein, UniProt Q3TTP0 1-639)
chain: MESDATTSEPKASVGSDSSPAEQTVLATLRDSVAAPTRGFMSPVRSVVASPRPVKGKAARRRLQLPPVTQAETCDEEPVPAVPEDQEEAQPLPPIYASPMRGMWRSEKVALYCDQVLQGSKAEDAEEAMSRYLLEKLKAKDRWLGVWKSNPELFFEKYEEASIPFVGILVEVTCKPRQNLSSCFKVTVSVAEPFSSNIANIPRDLVDEVLGELEYSAPLLEVYPVDGQDADVRDIALALEVVRFFYDFLWRDWDDEENCENYTALIEERINLWCDIQDGTIPGPIAQRFKKTLEKYKNKRVELIEYQSNIKEDPSAAEAVECWKKYYEIVMLCGLLKMWEDLRLRVHGPFFPRILRRRKGKRDFGKTITHIVAKVMTTDMVKNLSSDTLLQQHNDLNLALDSCYSGDIVVIFPGEYQASNLALLTDDITIKGVGKREEIMITSEPSHDSFVVSKADNVKLMQLSLIQQGTVDGIVVVESGHLTLENCLLKCEGTGVCVLTGASLTITNSEITGAQGAGVELYPGSIAILEGNEIHHCNNLRTSDSSKSTLGGVNMKVLPAPKLKMTNNHIYNNNGYGVSILQPSEQFFIVAEAALNKGAASGDKKDDKMLSKVMQTLNVEMNNNRIEANLKGDIRIVTG
B2: DDX4 (protein, UniProt Q61496 1-702)
chain: MGDEDWEAEILKPHVSSYVPVFEKDKYSSGANGDTFNRTSASSDIGESSKKENTSTTGGFGRGKGFGNRGFLNNKFEEGDSSGFWKESNNDCEDNQTRSRGFSKRGGCQDGNDSEASGPFRRGGRGSFRGCRGGFGLGRPNSESDQDQGTQRGGGLFGSRKPAASDSGNGDTYQSRSGSGRGGYKGLNEEVVTGSGKNSWKSETEGGESSDSQGPKVTYIPPPPPEDEDSIFAHYQTGINFDKYDTILVEVSGHDAPPAILTFEEANLCQTLNNNIAKAGYTKLTPVQKYSIPIVLAGRDLMACAQTGSGKTAAFLLPILAHMMRDGITASRFKELQEPECIIVAPTRELINQIYLEARKFSFGTCVRAVVIYGGTQFGHSVRQIVQGCNILCATPGRLMDIIGKEKIGLKQVKYLVLDEADRMLDMGFGPEMKKLISCPGMPSKEQRQTLLFSATFPEEIQRLAGDFLKSSYLFVAVGQVGGACRDVQQTILQVGQYSKREKLVEILRNIGDERTMVFVETKKKADFIATFLCQEKISTTSIHGDREQREREQALGDFRCGKCPVLVATSVAARGLDIENVQHVINFDLPSTIDEYVHRIGRTGRCGNTGRAISFFDTDSDNHLAQPLVKVLSDAQQDVPAWLEEIAFSTYVPPSFSSSTRGGAVFASVDTRKNYQGKHTLNTAGISSSQAPNPVDDESWD

Target: protein disulfide isomerase (mouse (endogenous in testes)) (UniProt P09103)
Experiment: co-IP; anti-PDI antibody added to testes lysates of WT mice overnight at 4°C, protein G beads 2 hours, washed 3 times with lysis buffer (20 mM Tris-HCl, 150 mM NaCl pH 7.4, 1% Triton X-100, 1 mM EDTA, 0.5% sodium deoxycholate); partners detected by Western blotting

| Binder | binding |
| --- | --- |
| B1 | binds |
| B2 | binds |
